Data reported in PMC6385475.
These are yes or no findings as the source states them, for the method shown. Binding seen in cells or lysates may run through a third protein. Some results given as binding are weak or reduced against the parent protein; the word gives no strength.

By UniProt entry, the sequences of proteins in these tests, tags left out.
UniProt P01106: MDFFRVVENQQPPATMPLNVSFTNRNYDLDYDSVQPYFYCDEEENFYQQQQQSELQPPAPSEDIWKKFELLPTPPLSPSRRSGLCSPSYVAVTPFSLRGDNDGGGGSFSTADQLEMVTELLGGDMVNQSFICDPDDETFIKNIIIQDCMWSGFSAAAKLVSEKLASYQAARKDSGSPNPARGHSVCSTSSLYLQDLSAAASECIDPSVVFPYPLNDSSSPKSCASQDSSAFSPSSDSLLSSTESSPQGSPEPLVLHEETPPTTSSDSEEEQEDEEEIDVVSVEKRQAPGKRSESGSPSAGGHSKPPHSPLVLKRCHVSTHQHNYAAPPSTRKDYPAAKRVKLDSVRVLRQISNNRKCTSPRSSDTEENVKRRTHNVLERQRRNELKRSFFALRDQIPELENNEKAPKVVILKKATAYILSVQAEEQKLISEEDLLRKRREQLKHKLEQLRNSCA

Biological target: T1, Lysophosphatidylcholine acyltransferase 1 (human (endogenous in HCC827)) (UniProt Q8NF37)
T1 sequence: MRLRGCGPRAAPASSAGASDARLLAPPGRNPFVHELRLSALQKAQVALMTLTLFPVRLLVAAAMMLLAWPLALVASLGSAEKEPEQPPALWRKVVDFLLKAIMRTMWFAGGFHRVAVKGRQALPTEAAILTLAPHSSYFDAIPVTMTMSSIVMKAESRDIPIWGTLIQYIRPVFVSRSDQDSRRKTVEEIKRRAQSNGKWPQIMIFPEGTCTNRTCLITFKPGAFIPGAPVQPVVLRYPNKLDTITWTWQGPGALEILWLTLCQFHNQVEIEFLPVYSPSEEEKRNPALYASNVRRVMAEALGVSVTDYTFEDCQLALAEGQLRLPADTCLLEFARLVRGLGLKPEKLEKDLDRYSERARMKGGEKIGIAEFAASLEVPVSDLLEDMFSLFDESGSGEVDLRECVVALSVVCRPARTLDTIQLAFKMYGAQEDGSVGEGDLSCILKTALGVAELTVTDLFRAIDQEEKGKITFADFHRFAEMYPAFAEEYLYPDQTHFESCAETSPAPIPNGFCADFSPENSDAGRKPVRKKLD
Experiment: co-IP; endogenous proteins in HCC827 lysate (IP lysis buffer); lysates incubated with anti-LPCAT1 and anti-MYC antibodies separately overnight at 4 °C, protein A/G-agarose beads, washed three times with lysis buffer, western blotting

Substance: MYC (from UniProt P01106 1-454)
- binding: binds
